Results are given in words; binding and its absence hold for the method and conditions named. Some entries that bind do so weakly or less than the wild type. Blank lines part the entries; values can stand above or below the binder they belong to.
What was measured:
[1] = target: human PD-1 expressed on cells (CHO human PD-1 cells) (human) (UniProt Q15116); assay: FMAT binding assay on CHO human PD-1 cells, detection by anti-His
[2] = target: human PD-1 expressed on cells (CHO human PD-1 cells) (human) (UniProt Q15116); assay: FMAT, His-tagged VH on CHO human PD-1 cells
[3] = target: cynomolgus PD-1 (Acro Biosystems cat no. PD1-C5254) (cynomolgus) (UniProt B0LAJ3); assay: HTRF binding assay
[4] = target: huPD-1 extracellular domain (PepScan peptide arrays) (human) (UniProt Q15116); assay: PepScan ELISA, linear and constrained PD-1 peptide arrays, 1.1 monovalent

Amino acid sequences for entries named in this document (tags omitted). A change or cut given only in a name is not applied to a line headed by its entry.
UniProt Q15116: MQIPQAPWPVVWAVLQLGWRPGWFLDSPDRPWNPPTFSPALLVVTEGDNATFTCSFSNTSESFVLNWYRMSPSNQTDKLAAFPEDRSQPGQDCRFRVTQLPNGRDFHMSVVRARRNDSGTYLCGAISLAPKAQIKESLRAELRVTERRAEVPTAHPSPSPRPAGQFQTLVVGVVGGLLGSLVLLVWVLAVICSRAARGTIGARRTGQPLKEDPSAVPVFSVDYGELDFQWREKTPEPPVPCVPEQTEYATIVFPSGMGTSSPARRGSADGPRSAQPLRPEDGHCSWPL

B1: 1.21 (VHH)
VHH: EVQLVESGGGLVQPGRSLRLSCAASGFTFDDYAMHWVRQAPGKDLEWVSGISWNGGSMGYAASVKGRFTISRDNAKNSLYLQMNSLRAEDTALYYCVREKGPGLTGSTADYYGLDVWGQGTMVTVSS
notes: also called VH single domain antibody 1.21; Humabody VH 1.21
binding [1]: binds

B3: VH single domain antibody 1.1 (VHH)
VHH: EVQLLESGGGSVQPGRSLRLSCAASGFTFDDHAMHWVRQAPGKGLEWVSGISWNSGSMGYADSVKDRFTISRDNAKSSLYLQMNSLRAEDTALYYCVREKGPGLTGSTADYYGLDVWGQGTMVTVSS
notes: human VH single domain antibody (Humabody), purified through its C-terminal His tag; also called Humabody 1.1; clone 1.1
binding [3]: binds
binding [4]: binds

Now from value to binder:

binding [2]: binds
B2: Humabody 1.20 (VHH)
VHH: EVQLVESGGGLVQPGRSLRLSCAASGFTFDDYAMHWVRQAPGKDLEWVSGISWNGGSMGYADSVKGRFTISRDNAKNSLYLQMNSLRAEDTALYYCVREKGPGLTGSTADYYGLDVWGQGTMVTVSS

binding [3]: binds
B4: VH single domain antibody 1.2 (VHH)
VHH: EVQLVESGGGLVQPGRSLRLSCAASGFTFDDYAMHWVRQAPGKDLEWVSGISWNGGSMGYAASVKGRFTISRDNAKNSLYLQMNSLRAEDTALYYCVKDKGPGLIGSTADYYGLDVWGQGTTVTVSS
notes: human VH single domain antibody
